About 7,500 (2.1%) of roughly 360,000 compounds were called active. Inconclusive results, whose numbers are uncertain, are shown with a selection of clear calls. Calls follow the shape of the dose curve; as a rule, active = well fitted inhibition curve with a large enough effect; inconclusive = small, poorly fitted or top-dose-only effect, or effect the other way; inactive = flat fitted curve, though single readings scatter. Potencies of inconclusive entries are doubtful fits and often do not repeat.
Experiment: Nrf2 qHTS screen for inhibitors; also: nearly all actives have a fitted effect of over 60% in size
Details: A549 ARE-Fluc reporter, luciferase luminescence, 18-24 h; activity change, negative = inhibition: at 46 µM (top of the series)
How it was run: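 In this cell-based qHTS, ARE-driven firefly luciferase in A549 cells reports Nrf2 activity; the luminescent signal after BugLite lysis is the measured value, with a prior CellTiter-Fluor read for cell health.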
% is scaled to controls: 0 for no effect and ±100 for the full control effect; potency is read from the fitted curve at half-maximal effect.

Row | SMILES | Potency | activity change, negative = inhibition
1 | O=C1c2ccccc2C(=O)N1CCSc1ccccc1 | inconclusive: 11.6 µM [activator, partial curve] | 
2 | COc1cccc(/C=N/Nc2snc(SC)c2C#N)c1 | inconclusive: 3.26 µM [activator, partial curve, poor fit] | 
3 | CCOc1cc(CNc2ccc(N3CCCCC3)cc2)cc(Br)c1OCC(=O)NC(C)(C)C | active: 16.4 µM | 
4 | Cc1onc(-c2ccccc2)c1C(=O)Nc1ncc([N+](=O)[O-])s1 | active: 10.3 µM | 
5 | Cc1cccc(NC(=O)C2CCCN(S(=O)(=O)c3ccc4c(c3)oc(=O)n4C)C2)c1C (configuration not stated) |  | inactive: -7.01%
6 | CNC(C)C(=O)NC(C(=O)N1CCCC1C(=O)Nc1ccc2ncccc2c1)C(C)C (configuration not stated) | inconclusive: 6.51 µM [falling, single point] | 
7 | COc1ccc(OCCCC(=O)Nc2cccc(S(=O)(=O)N3CCCCCC3)c2)cc1 | inconclusive: 29.1 µM [falling, single point] | 
8 | Cc1noc(C)c1COc1cccc(C(=O)Nc2ccccc2N2CCOCC2)c1 | inconclusive: 9.2 µM [falling, partial curve, poor fit] | 
9 | COc1ccc(CNC(=O)C2CCN(S(=O)(=O)c3ccc4c(c3)C(C)(C)C(=O)N4C)CC2)cc1 | inconclusive: 23.1 µM [falling, partial curve, poor fit] | 
10 | Cc1cc(C)nc(N/N=C/c2ccccc2OCc2ccc(Cl)cc2)n1 | inconclusive: 6.51 µM [activator, partial curve, poor fit] | 
11 | COc1ccc(-n2nc(C(=O)Nc3ccc4c(c3)OCO4)c3ccccc3c2=O)c(OC)c1 | inconclusive: 18.4 µM [falling, partial curve, poor fit] | 
12 | CC1Cc2ccccc2N1C(=O)COc1ccc2c(c1)OCO2 (configuration not stated) | inconclusive: 4.11 µM [activator, partial curve, poor fit] | 
13 | CCOc1ccc(N(CC(=O)NCc2ccccc2)S(C)(=O)=O)cc1 | inconclusive: 20.6 µM [activator, partial curve] | 
14 | O=C(c1ccco1)N1CCN(C(=O)c2ccccc2[N+](=O)[O-])CC1 | inconclusive: 32.6 µM [falling, partial curve, poor fit] | 
15 | Cc1ccc(C)c(N(C)C(=O)c2cc3c(s2)-c2ccccc2OC3)c1 | inconclusive: 29.1 µM [falling, single point] | 
16 | COCCn1c(=O)[nH]c2cc(C(=O)NCc3ccccc3)ccc2c1=O | inconclusive: 14.6 µM [activator, single point] | 
17 | Cc1cc(C)c(OCC(=O)N(Cc2ccc(N(C)C)cc2)CC2CCCO2)c(C)c1 (configuration not stated) | inconclusive: 23.1 µM [falling, partial curve, poor fit] | 
18 | O=C(CS(=O)(=O)c1ccccc1)Nc1nc2ccccc2s1 | inconclusive: 29.1 µM [activator, partial curve, poor fit] | 
19 | Cc1cc(=O)n(CC(=O)N2CCCc3ccccc32)c2c1c(C)nn2-c1cccc(F)c1 | inconclusive: 32.6 µM [falling, single point] | 
20 | CCc1cccc2c(C(=O)COC(=O)c3ccc([N+](=O)[O-])s3)c[nH]c12 | inconclusive: 20.6 µM [falling, partial curve, poor fit] | 
21 | Cc1ccc(S(=O)(=O)Nc2ccc3c(c2)n(C)c(=O)n3C)c(C)c1 | inconclusive: 29.1 µM [falling, single point] | 

Row | SMILES | Potency | activity change, negative = inhibition
22 | Cc1ncoc1C(=O)NC1CCCc2c1cnn2-c1ccc(C(C)(C)C)cc1 (configuration not stated) | active: 2.31 µM | 
23 | CCOC(=O)C(CC)Sc1ncnc2c1c(-c1ccccc1)cn2-c1ccc(OC)cc1 (configuration not stated) |  | inactive: -3.23% [at 9.27 µM]
24 | O=C(c1ccccn1)N1CCN(S(=O)(=O)c2ccc3ccccc3c2)CC1 | inconclusive: 14.6 µM [falling, partial curve] | 
25 | CN1/C(=C/C2CC(=O)N(c3cccc4ccccc34)C2=O)C(C)(C)c2ccccc21 (configuration not stated) | inconclusive: 29.1 µM [falling, partial curve, poor fit] | 
26 | Nc1cc(-c2ccc(Cl)cc2)nn1S(=O)(=O)c1ccc(Cl)cc1 | inconclusive: 25.9 µM [falling, partial curve, poor fit] | 
27 | Cc1cccc(CNc2ncnc3ccc(-c4cccnc4)cc23)c1 |  | inactive: 3.93%
28 | N/C(=N\OC(=O)c1cccc2ccccc12)c1cccnc1 | inconclusive: 23.1 µM [activator, partial curve] | 
29 | COC(=O)c1cc(NC(=S)NC(=O)c2ccccc2)ccc1N1CCOCC1 |  | inactive: -12%
30 | CCOc1ccc(NC(=O)CN(C)C(=O)CCCc2nc3ccccc3c(=O)[nH]2)cc1OCC |  | inactive: -2.12%
31 | COc1cccc(C2CC(c3ccc(NS(C)(=O)=O)cc3)=NN2C(=O)c2ccccc2)c1OC (configuration not stated) | inconclusive: 23.1 µM [falling, single point] | 
32 | COc1ccccc1-n1c(C)cc(/C=C2/C(=N)N3C(=NC2=O)SN=C3S(C)(=O)=O)c1C | inconclusive: 4.61 µM [activator, full curve] | 
33 | CCCN(C(=O)Cc1nc(-c2ccc(OC)cc2)no1)c1ccccc1C | inconclusive: 25.9 µM [falling, partial curve, poor fit] | 
34 | CCc1cccc(C)c1NC(=O)CCCn1c(C)c2cnn(-c3ccccc3)c(=O)c2c1C |  | inactive: -5.57%
35 | Nc1ccccc1N1C(=O)c2cccc3cccc(c23)C1=O | inconclusive: 13 µM [activator, partial curve, poor fit] | 
36 | O=C(O)c1cc([N+](=O)[O-])c(Sc2nc3ccccc3[nH]2)c([N+](=O)[O-])c1 |  | inactive: -26.2%
37 | CC1=C(C(=O)Nc2ccccn2)C(c2ccc(Br)cc2)NC(=S)N1 (configuration not stated) | inconclusive: 14.6 µM [activator, partial curve, poor fit] | 
38 | O=C(NN1C(=O)NC2(CCCCC2)C1=O)c1ccc(-c2ccccc2Cl)o1 | inconclusive: 29.1 µM [activator, single point] | 
39 | Cc1nc([N+](=O)[O-])cn1-c1nc2ccccn2c1[N+](=O)[O-] | inconclusive: 29.1 µM [activator, single point] | 
40 | Cc1cccc(Nc2ncnc(N)n2)c1 |  | inactive: 18%
41 | C=CCn1cccc(C(=O)Nc2ccc(C)c(C)c2)c1=O | inconclusive: 18.4 µM [activator, partial curve] | 
42 | O=C(Cc1c(F)cccc1Cl)Nc1ccncc1 | inconclusive: 2.06 µM [falling, full curve, poor fit] | 

Ordered by molar mass (rising): 4 of the compounds above
Row | SMILES | Potency | activity change, negative = inhibition
39 | Cc1nc([N+](=O)[O-])cn1-c1nc2ccccn2c1[N+](=O)[O-] | inconclusive: 29.1 µM [activator, single point] | 
33 | CCCN(C(=O)Cc1nc(-c2ccc(OC)cc2)no1)c1ccccc1C | inconclusive: 25.9 µM [falling, partial curve, poor fit] | 
38 | O=C(NN1C(=O)NC2(CCCCC2)C1=O)c1ccc(-c2ccccc2Cl)o1 | inconclusive: 29.1 µM [activator, single point] | 
25 | CN1/C(=C/C2CC(=O)N(c3cccc4ccccc34)C2=O)C(C)(C)c2ccccc21 (configuration not stated) | inconclusive: 29.1 µM [falling, partial curve, poor fit] | 

The list continues.

Row | SMILES | Potency | activity change, negative = inhibition
43 | COc1cccc(C(=O)N/N=C(\C)c2cccc(NC(=O)c3ccc(F)cc3)c2)c1OC | inconclusive: 32.6 µM [falling, partial curve, poor fit] | 
44 | C=C(C)COc1ccc(-c2nc(N)ncc2-c2ccc(Cl)cc2)c(O)c1 | inconclusive: 20.6 µM [falling, single point] | 
45 | CC(C)(C)NC(=O)C(c1c[nH]c2ccccc12)N(C(=O)Cn1nnc(-c2ccc(F)cc2)n1)c1cccc(O)c1 (configuration not stated) | inconclusive: 23.1 µM [falling, partial curve, poor fit] | 
46 | COc1ccc(CNC(=O)C[C@H]2C[C@H](C(=O)N(C(C)C)C(C)C)[C@@]3(C)c4[nH]c5cc(-c6ccco6)ccc5c4CCN3C2=O)cc1OC | inconclusive: 18.4 µM [falling, single point] | 
47 | O=C(Nc1ccccc1C(=O)NCc1ccco1)c1ccccc1 | inconclusive: 0.291 µM [activator, full curve, poor fit] | 
48 | O=C1c2ccc3c4c(ccc(c24)C(=O)N1NC(=O)C(F)(F)F)CC3 |  | inactive: 14.1%
49 | COc1ccc(C(=O)N2CCC(n3nnc4cc(F)ccc43)CC2)cc1OC | inconclusive: 32.6 µM [falling, partial curve, poor fit] | 
50 | O=C(Nc1ccccc1C(=O)NC1CC1)c1ccccc1 | inconclusive: 0.92 µM [falling, full curve, poor fit] | 
51 | Cc1ccc(NS(=O)(=O)c2cc(C(=O)Nc3cccc([N+](=O)[O-])c3)ccc2C)cc1 | inconclusive: 25.9 µM [falling, single point] | 
52 | CS(=O)(=O)Nc1ccc(N2CCN(c3ccc(C(F)(F)F)cn3)CC2)nc1 | active: 7.31 µM | 
53 | S=C(Nc1cccc(Cl)c1)Nc1cccc2cnccc12 | inconclusive: 25.9 µM [falling, single point] | 
54 | COc1ccc2c(c1)c1nnc(SC(C)C)nc1n2C | inconclusive: 14.6 µM [activator, partial curve] | 
55 | Cc1cc(C)n(-c2ccc(C(=O)Nc3ccc(S(=O)(=O)NCc4ccco4)cc3)cc2)n1 | active: 25.9 µM | 
56 | COc1cc(NC(=O)c2[nH]cnc2C(N)=O)cc(C(=O)Nc2cccc(C(F)(F)F)c2)c1 | inconclusive: 18.4 µM [falling, single point] | 
57 | Cc1cc(NC(=S)NC(=O)c2ccccc2)ccc1-c1cc2ccccc2oc1=O | inconclusive: 25.9 µM [falling, single point] | 
58 | Cc1cccc(C)c1NC(=O)c1cccc(C(=O)Nc2c(C)cccc2C)n1 | inconclusive: 9.2 µM [activator, partial curve, poor fit] | 
59 | CCOC(=O)N1CCC(N(C(=O)Nc2cccc(OC)c2)C(C)CC)CC1 (configuration not stated) | inconclusive: 0.366 µM [falling, full curve, poor fit] | 
60 | Cc1ccc(S(=O)(=O)N2CCC(C(=O)Nc3ccc(C(C)C)cc3)CC2)cc1 | inconclusive: 29.1 µM [falling, single point] | 
61 | CC(=O)Nc1ccc(S(=O)(=O)N2CCN(Cc3nc4sc(C)c(C)c4c(=O)[nH]3)CC2)cc1 |  | inactive: -0.141%
62 | CN(C)CCCN(C(=O)c1ccc([N+](=O)[O-])o1)c1nc2cc3c(cc2s1)OCO3 |  | inactive: 25.5%

Reference: PubChem BioAssay AID504444 (National Center for Advancing Translational Sciences (NCATS), 2011)
